Measured values taken from doi:10.1101/728410.
No constants are given. Whether binding was seen depends on the method and setting. Binding seen in cells or lysates may run through a third protein. Some entries that bind do so weakly or less than the wild type.

Amino acid sequences for entries named in this document (tags omitted). A change or cut given only in a name is not applied to a line headed by its entry. Chains listed by the source or under a name are the forms on record and can include a tag or linker.
shank2 R240K mutant (reconstituted expression) (Q9QX74, form named): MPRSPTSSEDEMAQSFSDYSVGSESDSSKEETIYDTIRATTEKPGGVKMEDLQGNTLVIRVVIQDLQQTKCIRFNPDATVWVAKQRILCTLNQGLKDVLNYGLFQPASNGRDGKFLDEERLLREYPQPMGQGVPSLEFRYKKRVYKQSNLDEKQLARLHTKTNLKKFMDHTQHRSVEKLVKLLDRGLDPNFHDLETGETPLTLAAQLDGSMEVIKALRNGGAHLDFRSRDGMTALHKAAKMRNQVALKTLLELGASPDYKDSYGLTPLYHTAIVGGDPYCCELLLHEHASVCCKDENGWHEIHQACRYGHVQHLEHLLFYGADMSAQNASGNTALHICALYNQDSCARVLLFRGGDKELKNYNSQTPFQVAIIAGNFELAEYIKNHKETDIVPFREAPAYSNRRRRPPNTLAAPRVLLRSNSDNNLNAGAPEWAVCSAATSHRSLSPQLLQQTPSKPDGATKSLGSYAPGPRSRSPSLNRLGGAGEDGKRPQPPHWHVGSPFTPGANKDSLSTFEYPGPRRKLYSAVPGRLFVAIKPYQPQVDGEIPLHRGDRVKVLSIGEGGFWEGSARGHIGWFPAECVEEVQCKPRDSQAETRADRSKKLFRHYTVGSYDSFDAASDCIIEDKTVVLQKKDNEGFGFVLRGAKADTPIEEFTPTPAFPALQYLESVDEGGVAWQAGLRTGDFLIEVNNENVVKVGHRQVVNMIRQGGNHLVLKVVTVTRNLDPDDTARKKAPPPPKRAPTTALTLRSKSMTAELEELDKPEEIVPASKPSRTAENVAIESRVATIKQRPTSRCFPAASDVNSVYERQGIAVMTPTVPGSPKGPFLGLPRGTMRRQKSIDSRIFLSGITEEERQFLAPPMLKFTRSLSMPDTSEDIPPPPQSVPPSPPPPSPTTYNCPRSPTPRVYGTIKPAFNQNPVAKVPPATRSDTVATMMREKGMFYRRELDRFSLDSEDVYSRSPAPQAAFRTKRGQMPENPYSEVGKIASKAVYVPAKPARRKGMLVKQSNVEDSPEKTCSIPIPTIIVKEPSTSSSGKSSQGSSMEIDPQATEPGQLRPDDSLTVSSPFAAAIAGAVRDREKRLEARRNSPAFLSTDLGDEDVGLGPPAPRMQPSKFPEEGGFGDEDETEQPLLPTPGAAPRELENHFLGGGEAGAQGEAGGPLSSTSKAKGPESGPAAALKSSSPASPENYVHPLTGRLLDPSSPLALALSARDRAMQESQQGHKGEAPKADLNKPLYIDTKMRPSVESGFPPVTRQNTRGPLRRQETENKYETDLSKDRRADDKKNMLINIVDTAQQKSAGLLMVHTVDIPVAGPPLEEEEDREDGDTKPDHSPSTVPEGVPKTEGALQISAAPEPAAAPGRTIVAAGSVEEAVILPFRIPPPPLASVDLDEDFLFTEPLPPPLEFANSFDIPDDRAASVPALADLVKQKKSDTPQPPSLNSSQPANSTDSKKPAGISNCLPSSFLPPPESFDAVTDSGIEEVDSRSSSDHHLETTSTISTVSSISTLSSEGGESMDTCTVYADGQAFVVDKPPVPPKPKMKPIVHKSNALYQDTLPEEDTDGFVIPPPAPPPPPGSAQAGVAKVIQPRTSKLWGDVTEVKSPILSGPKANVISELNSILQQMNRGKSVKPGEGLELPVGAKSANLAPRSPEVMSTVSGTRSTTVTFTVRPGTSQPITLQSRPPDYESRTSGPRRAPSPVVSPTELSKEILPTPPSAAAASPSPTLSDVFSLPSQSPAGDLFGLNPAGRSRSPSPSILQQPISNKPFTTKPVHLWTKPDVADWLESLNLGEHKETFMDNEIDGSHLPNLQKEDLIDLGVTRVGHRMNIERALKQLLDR
shank2 WT (reconstituted expression) (Q9QX74, form named): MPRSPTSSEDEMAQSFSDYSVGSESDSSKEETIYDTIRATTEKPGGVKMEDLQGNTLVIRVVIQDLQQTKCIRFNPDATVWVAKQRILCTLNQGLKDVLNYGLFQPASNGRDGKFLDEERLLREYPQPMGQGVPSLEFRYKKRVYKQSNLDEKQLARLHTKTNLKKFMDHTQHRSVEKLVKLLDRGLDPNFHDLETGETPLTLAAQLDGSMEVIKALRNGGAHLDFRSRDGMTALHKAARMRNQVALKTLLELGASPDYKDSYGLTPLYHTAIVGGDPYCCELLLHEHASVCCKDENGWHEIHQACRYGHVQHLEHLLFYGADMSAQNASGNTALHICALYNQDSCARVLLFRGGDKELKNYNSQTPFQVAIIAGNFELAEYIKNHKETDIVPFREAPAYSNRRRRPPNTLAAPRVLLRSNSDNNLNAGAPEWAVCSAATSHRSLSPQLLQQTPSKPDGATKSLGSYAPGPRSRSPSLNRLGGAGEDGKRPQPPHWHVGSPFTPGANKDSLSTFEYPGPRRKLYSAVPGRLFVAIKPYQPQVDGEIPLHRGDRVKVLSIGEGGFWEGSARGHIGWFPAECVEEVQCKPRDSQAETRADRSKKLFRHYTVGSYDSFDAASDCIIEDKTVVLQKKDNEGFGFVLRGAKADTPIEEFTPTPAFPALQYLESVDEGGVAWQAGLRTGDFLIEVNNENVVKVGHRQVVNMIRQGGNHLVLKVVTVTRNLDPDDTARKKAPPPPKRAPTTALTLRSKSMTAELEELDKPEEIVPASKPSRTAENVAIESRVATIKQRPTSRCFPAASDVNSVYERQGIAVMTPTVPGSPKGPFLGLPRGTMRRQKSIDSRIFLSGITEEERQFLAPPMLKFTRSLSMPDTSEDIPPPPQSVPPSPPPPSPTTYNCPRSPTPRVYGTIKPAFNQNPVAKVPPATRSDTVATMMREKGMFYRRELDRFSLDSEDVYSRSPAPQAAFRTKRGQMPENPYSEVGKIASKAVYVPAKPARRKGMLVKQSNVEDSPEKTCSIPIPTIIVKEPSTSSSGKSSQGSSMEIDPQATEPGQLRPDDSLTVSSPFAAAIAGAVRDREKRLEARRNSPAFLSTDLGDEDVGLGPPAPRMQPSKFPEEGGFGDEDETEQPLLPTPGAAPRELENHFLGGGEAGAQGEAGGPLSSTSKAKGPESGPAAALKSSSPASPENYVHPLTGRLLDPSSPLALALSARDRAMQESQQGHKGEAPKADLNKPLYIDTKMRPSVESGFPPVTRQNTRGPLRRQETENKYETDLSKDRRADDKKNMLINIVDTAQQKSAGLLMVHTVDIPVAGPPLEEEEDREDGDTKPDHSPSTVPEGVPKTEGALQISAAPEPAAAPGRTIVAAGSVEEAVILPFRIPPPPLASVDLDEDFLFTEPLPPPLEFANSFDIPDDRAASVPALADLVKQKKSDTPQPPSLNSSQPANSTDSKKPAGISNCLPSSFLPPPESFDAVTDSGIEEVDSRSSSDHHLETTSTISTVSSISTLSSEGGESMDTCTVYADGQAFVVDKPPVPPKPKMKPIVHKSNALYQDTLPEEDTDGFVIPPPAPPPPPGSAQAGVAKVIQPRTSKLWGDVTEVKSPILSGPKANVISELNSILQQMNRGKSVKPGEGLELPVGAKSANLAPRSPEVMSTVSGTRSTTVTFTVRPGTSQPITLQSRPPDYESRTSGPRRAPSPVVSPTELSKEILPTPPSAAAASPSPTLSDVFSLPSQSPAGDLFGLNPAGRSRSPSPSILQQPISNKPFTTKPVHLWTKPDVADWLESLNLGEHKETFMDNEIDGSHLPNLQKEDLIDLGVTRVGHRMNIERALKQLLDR

Key:
[1] = molecular target: shank2 R240K mutant (reconstituted expression) (UniProt Q9QX74); test: co-IP
[2] = molecular target: shank2 WT (reconstituted expression) (UniProt Q9QX74); test: co-IP

B1: RIN1 (endogenous) (protein, UniProt Q13671 1-783)
chain: MESPGESGAGSPGAPSPSSFTTGHLAREKPAQDPLYDVPNASGGQAGGPQRPGRVVSLRERLLLTRPVWLQLQANAAAALHMLRTEPPGTFLVRKSNTRQCQALCMRLPEASGPSFVSSHYILESPGGVSLEGSELMFPDLVQLICAYCHTRDILLLPLQLPRAIHHAATHKELEAISHLGIEFWSSSLNIKAQRGPAGGPVLPQLKARSPQELDQGTGAALCFFNPLFPGDLGPTKREKFKRSFKVRVSTETSSPLSPPAVPPPPVPVLPGAVPSQTERLPPCQLLRRESSVGYRVPAGSGPSLPPMPSLQEVDCGSPSSSEEEGVPGSRGSPATSPHLGRRRPLLRSMSAAFCSLLAPERQVGRAAAALMQDRHTAAGQLVQDLLTQVRAGPEPQELQGIRQALSRARAMLSAELGPEKLLSPKRLEHVLEKSLHCSVLKPLRPILAARLRRRLAADGSLGRLAEGLRLARAQGPGAFGSHLSLPSPVELEQVRQKLLQLLRTYSPSAQVKRLLQACKLLYMALRTQEGEGAGADEFLPLLSLVLAHCDLPELLLEAEYMSELLEPSLLTGEGGYYLTSLSASLALLSGLGQAHTLPLSPVQELRRSLSLWEQRRLPATHCFQHLLRVAYQDPSSGCTSKTLAVPPEASIATLNQLCATKFRVTQPNTFGLFLYKEQGYHRLPPGALAHRLPTTGYLVYRRAEWPETQGAVTEEEGSGQSEARSRGEEQGCQGDGDAGVKASPRDIREQSETTAEGGQGQAQEGPAQPGEPEAEGSRAAEE
- binding [1]: binds
- binding [2]: binds
